From PMC7140707
No constants are given. Whether binding was seen depends on the method and setting. In cells and extracts the contact can be indirect. A yes stands for co-enrichment or nearness to the bait. Other partners may have been found. Where a sequence is shown, tags or fusion partners need not be part of it.

T1: His6-Gis1 (yeast (S. cerevisiae)) (UniProt Q03833)
T1 sequence: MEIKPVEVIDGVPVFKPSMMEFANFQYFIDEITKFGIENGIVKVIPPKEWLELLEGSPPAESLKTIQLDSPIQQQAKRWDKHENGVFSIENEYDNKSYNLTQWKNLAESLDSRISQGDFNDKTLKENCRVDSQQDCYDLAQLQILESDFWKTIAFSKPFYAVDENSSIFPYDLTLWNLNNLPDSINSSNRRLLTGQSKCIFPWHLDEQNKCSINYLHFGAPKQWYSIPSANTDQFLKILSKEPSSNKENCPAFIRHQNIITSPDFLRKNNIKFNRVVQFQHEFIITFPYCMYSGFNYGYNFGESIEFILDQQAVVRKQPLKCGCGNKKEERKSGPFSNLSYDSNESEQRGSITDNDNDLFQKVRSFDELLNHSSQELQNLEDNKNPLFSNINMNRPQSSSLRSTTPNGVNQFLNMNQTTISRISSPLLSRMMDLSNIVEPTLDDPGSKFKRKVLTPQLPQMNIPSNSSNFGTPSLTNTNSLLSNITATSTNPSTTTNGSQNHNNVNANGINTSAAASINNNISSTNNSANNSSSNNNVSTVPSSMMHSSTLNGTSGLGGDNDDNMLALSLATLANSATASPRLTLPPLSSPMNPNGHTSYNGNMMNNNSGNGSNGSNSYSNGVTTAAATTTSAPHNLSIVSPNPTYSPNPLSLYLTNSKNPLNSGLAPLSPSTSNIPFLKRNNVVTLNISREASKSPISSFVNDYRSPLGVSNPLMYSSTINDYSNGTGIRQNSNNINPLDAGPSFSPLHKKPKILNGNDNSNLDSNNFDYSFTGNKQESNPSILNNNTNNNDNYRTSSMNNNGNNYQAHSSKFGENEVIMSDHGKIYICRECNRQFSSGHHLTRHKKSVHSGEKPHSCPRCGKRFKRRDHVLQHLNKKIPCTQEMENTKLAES

B1: AHA1 (protein, UniProt Q12449 1-350)
chain: MVVNNPNNWHWVDKNCIGWAKEYFKQKLVGVEAGSVKDKKYAKIKSVSSIEGDCEVNQRKGKVISLFDLKITVLIEGHVDSKDGSALPFEGSINVPEVAFDSEASSYQFDISIFKETSELSEAKPLIRSELLPKLRQIFQQFGKDLLATHGNDIQVPESQVKSNYTRGNQKSSFTEIKDSASKPKKNALPSSTSTSAPVSSTNKVPQNGSGNSTSIYLEPTFNVPSSELYETFLDKQRILAWTRSAQFFNSGPKLETKEKFELFGGNVISELVSCEKDKKLVFHWKLKDWSAPFNSTIEMTFHESQEFHETKLQVKWTGIPVGEEDRVRANFEEYYVRSIKLTFGFGAVL
B2: KCS1 (protein, UniProt Q12494 1-1050)
chain: MDTSHEIHDKIPDTLREQQQHLRQKESEGCITTLKDLNVPETKKLSSVLHGRKASTYLRIFRDDECLADNNNGVDSNNGGSVTCADKITRSEATPKSVPEGLQVSEKKNNPDTLSSSLSSFILSNHEEPAIKPNKHVAHRNNITETGQGSGEDIAKQQSHQPQVLHHQTSLKPIQNVDEGCISPKSTYQESLHGISEDLTLKPVSSATYYPHKSKADSGYEEKDKMENDIDTIQPATINCASGIATLPSSYNRHTFKVKTYSTLSQSLRQENVNNRSNEKKPQQFVPHSESIKEKPNTFEQDKEGEQADEEEDEGDNEHREYPLAVELKPFTNRVGGHTAIFRFSKRAVCKALVNRENRWYENIELCHKELLQFMPRYIGVLNVRQHFQSKDDFLSDLDQENNGKNDTSNENKDIEVNHNNNDDIALNTEPTGTPLTHIHSFPLEHSSRQVLEKEHPEIESVHPHVKRSLSSSNQPSLLPEVVLNDNRHIIPESLWYKYSDSPNSAPNDSYFSSSSSHNSCSFGERGNTNKLKRRDSGSTMINTELKNLVIREVFAPKCFRRKRNSNTTTMGNHNARLGSSPSFLTQKSRASSHDASNTSMKTLGDSSSQASLQMDDSKVNPNLQDPFLKKSLHEKISNALDGSHSVMDLKQFHKNEQIKHKNSFCNSLSPILTATNSRDDGEFATSPNYISNAQDGVFDMDEDTGNETINMDNHGCHLDSGKNMIIKSLAYNVSNDYSHHDIESITFEETSHTIVSKFILLEDLTRNMNKPCALDLKMGTRQYGVDAKRAKQLSQRAKCLKTTSRRLGVRICGLKVWNKDYYITRDKYFGRRVKVGWQFARVLARFLYDGKTIESLIRQIPRLIKQLDTLYSEIFNLKGYRLYGASLLLMYDGDANKSNSKRKKAANVKVNLIDFARCVTKEDAMECMDKFRIPPKSPNIEDKGFLRGVKSLRFYLLLIWNYLTSDMPLIFDEVEMNDMISEEADSNSFTSATGSKINFNSKWDWLDEFDKEDEEMYNDPNSKLRQKWRKYELIFDAEPRYNDDAQVSD
B3: GYP1 (protein, UniProt Q08484 1-637)
chain: MGVRSAAKEMHERDHNSDSSSLVTSLMKSWRISSASSSKKPSLYKMNTTESTSLPSGYASSADRDRRTSDGNFEAMAKQQASTRRTSNSYSPLRYVNPTLSTASNESPRPALLLRQHHQRHHHHQQPRHSSSGSVGNNCSNSTEPNKKGDRYFKDLDEDWSAVIDDYNMPIPILTNGGFGTPVAPTRTLSRKSTSSSINSISNMGTSAVRNSSSSFTYPQLPQLQKEKTNDSKKTQLEIENERDVQELNSIIQRISKFDNILKDKTIINQQDLRQISWNGIPKIHRPVVWKLLIGYLPVNTKRQEGFLQRKRKEYRDSLKHTFSDQHSRDIPTWHQIEIDIPRTNPHIPLYQFKSVQNSLQRILYLWAIRHPASGYVQGINDLVTPFFETFLTEYLPPSQIDDVEIKDPSTYMVDEQITDLEADTFWCLTKLLEQITDNYIHGQPGILRQVKNLSQLVKRIDADLYNHFQNEHVEFIQFAFRWMNCLLMREFQMGTVIRMWDTYLSETSQEVTSSYSMSSNDIKPPVTPTEPRVASFVTPTKDFQSPTTALSNMTPNNAVEDSGKMRQSSLNEFHVFVCAAFLIKWSDQLMEMDFQETITFLQNPPTKDWTETDIEMLLSEAFIWQSLYKDATSHWL
B4: HIT1 (protein, UniProt P46973 1-164)
chain: MVSSAVKCGICRGVDGKYKCPKCGVRYCSLKCYKDAAKHVHKESEQPRAGTEANVEVVNNDKIINSSLAMNKTLKTKAFDDIYQNSAELQELLKYNTVKFHLAKVYRILSSTVNDGSSGKMNSDLQKELAVNYLNTLRYGGIHYNEAIEEFCQILLDKLNAVKK
B5: MHP1 (protein, UniProt P43638 1-1398)
chain: MDSKDTQKLLKEHRIPCIDVGWLVRPSASTSKSSRPGKSESKANSVAPDIQMDTARPPVFETSVDSSSSILSSNDKGRRHSVAASLLMDNQRANAGSTSVPTNIPPPRGRSKSVVETNLSNVEADSGHHHHHRHHHHTEDAPAPKKVGFFKSLFGHRKKDQEQQEKERERKERSPSPTHVDRGAAIRRERTATISAESPPPLQYNAPPSYNDTVVPLTRSKTESEVYYENHPQSYYHGRMRTYHSPEEGKVDGTSPADDHNYGGSRPDPRLMDFLRYYKSKDYKLAAFKEGNFIKSSASPTTKKNRRASFSLHNDKPQPAKSLAHQKFDAKGRPIPPHPDAPKLPSAFRKKHPSNASIVDTVDSNSDVSSSAQNNNQTPSSHKFGAFLRKVTSYGNNNNNSTNASSLSANVNNPDTSSTSLWSSSSMEFDPSKITTVPGLENIRPLKHVSFATNTYFNDPPQQICSKNPRKGEVEVKPNGSVVIHRLTPQERKKIMESTSLGVVVGGTGQLKLLNPEEDDANAKSKEEMAPQKQNEVEAHDEEDNNSQRRNIVMAAAEAAAEARAKEAPNELKRIVTNNEEEVTVSKTASHLTIDKPMISRRGASTSSLASMVSSDTNGTNADDEGEILPPPSLKIPHDIVYTRCCHLREILPIPATLKQLKKGSTDPIPILQLRNPRPSMVEIWSFSDFLSIAPVLCLSLDGVQLTVQMLRIILSSLVYKQHFQKLSLRNTPLDEEGWKVLCYFVSKAKSLHSIDLTMVPSIKTNVQKPSKSSLKSKILRMQCNLENRSDMNWDLLTASIALMGGLEEIVISGAKMNSAQFKNFILVACIATERLGLAYNGLSKSQCDDLAKWMVQSKVTGLDVGFNDLNGKLSSFTDAVLGKIQKANEKNVFKFLSLNGTNLRVNEHDTFENNEVLKLISVLCYLENLKFLDISNNPAIFPHCVPTLIDFLPVFVNLVRLHIDYNNLSSTSVVMLAEILPMCSRLNYFSMLGTELDLASSKALAEAVRKSSSLMTLDVDYVYMPENIKEKISLYALRNIQGELKRVNSDDKDIKDSQFSSLQDQLSLLLTEKADNSEHYNKMVENFMAKIALARIKISKVVHDLFDLKLNGQLNLEGKEALIRLCFIEASLERGCDLLKQRHNNTLKSPEAVSKSRKGGNQAQPNSESCQRMLLSSSILQNSDHIALMPFGSAIVEKSSPDAEDAVEFREGDDSNVNHEDVPANDQQFRDEVDIKNKYSIIKRELEHEKLVGGGDLPVDKEILNRAAQSLDSDQIKEFLLKNDVSTILGVIDELHSQGYHLHHIFKKQGNQEETAFRTKDEQQSSQSNDSSANASPTTDPISTGSNTSRTNDNAHIPPTDAPGFDKFMNNAEENAIDAAYDDVLDKIQDARNSSTK
B6: GPD2 (protein, UniProt P41911 17-440)
chain: HPVLYTRRAYKILPSRSTFLRRSLLQTQLHSKMTAHTNIKQHKHCHEDHPIRRSDSAVSIVHLKRAPFKVTVIGSGNWGTTIAKVIAENTELHSHIFEPEVRMWVFDEKIGDENLTDIINTRHQNVKYLPNIDLPHNLVADPDLLHSIKGADILVFNIPHQFLPNIVKQLQGHVAPHVRAISCLKGFELGSKGVQLLSSYVTDELGIQCGALSGANLAPEVAKEHWSETTVAYQLPKDYQGDGKDVDHKILKLLFHRPYFHVNVIDDVAGISIAGALKNVVALACGFVEGMGWGNNASAAIQRLGLGEIIKFGRMFFPESKVETYYQESAGVADLITTCSGGRNVKVATYMAKTGKSALEAEKELLNGQSAQGIITCREVHEWLQTCELTQEFPLFEAVYQIVYNNVRMEDLPEMIEELDIDDE
B7: IMP2 (protein, UniProt P46972 1-177)
chain: MFRAGSSKRFLRNTLIAISWVPVLLTINNNVVHIAQVKGTSMQPTLNPQTETLATDWVLLWKFGVKNPSNLSRDDIILFKAPTNPRKVYCKRVKGLPFDTIDTKFPYPKPQVNLPRGHIWVEGDNYFHSIDSNTFGPISSGLVIGKAITIVWPPSRWGTDLKLSTGRDCISKRAILE
B8: HPA3 (protein, UniProt P39979 1-161)
chain: MSNEEPEKMVNDRIVVKAIEPKDEEAWNKLWKEYQGFQKTVMPPEVATTTFARFIDPTVKLWGALAFDTETGDAIGFAHYLNHLTSWHVEEVVYMNDLYVTERARVKGVGRKLIEFVYSRADELGTPAVYWVTDHYNHRAQLLYTKVAYKTDKVLYKRNGY
B9: GOR1 (protein, UniProt P53839 1-350)
chain: MSKKPIVLKLGKDAFGDQAWGELEKIADVITIPESTTREQFLREVKDPQNKLSQVQVITRTARSVKNTGRFDEELALALPSSVVAVCHTGAGYDQIDVEPFKKRHIQVANVPDLVSNATADTHVFLLLGALRNFGIGNRRLIEGNWPEAGPACGSPFGYDPEGKTVGILGLGRIGRCILERLKPFGFENFIYHNRHQLPSEEEHGCEYVGFEEFLKRSDIVSVNVPLNHNTHHLINAETIEKMKDGVVIVNTARGAVIDEQAMTDALRSGKIRSAGLDVFEYEPKISKELLSMSQVLGLPHMGTHSVETRKKMEELVVENAKNVILTGKVLTIVPELQNEDWPNESKPLV
B10: GRX2 (protein, UniProt P17695 31-143)
chain: STPKMVSQETVAHVKDLIGQKEVFVAAKTYCPYCKATLSTLFQELNVPKSKALVLELDEMSNGSEIQDALEEISGQKTVPNVYINGKHIGGNSDLETLKKNGKLAEILKPVFQ

biological target: T1, His6-Gis1 (yeast (S. cerevisiae)); experiment: affinity purification with mass spectrometry; His6-Gis1 pre-bound to a Ni Sepharose 6 Fast Flow column; crude yeast extract (Δgis1 cells grown in air or under hypoxia, Δgis1Δhem1 cells at intermediate or high ALA) loaded, 4 °C, 2 h; eluted complexes separated by SDS-PAGE, bands excised, MS; only the target purified

binding, binds:
B1
B2
B3
B4
B5
B6
B7
B8
B9
B10
